Results published in PMC5760656.
Results are given in words; binding and its absence hold for the method and conditions named. Binding seen in cells or lysates may run through a third protein. Some results given as binding are weak or reduced against the parent protein; the word gives no strength. Tags and fused reporters may be left off the sequences shown.

Sequences of proteins named here, by UniProt entry; tags and fusion partners are left off.
UniProt Q8CDG1: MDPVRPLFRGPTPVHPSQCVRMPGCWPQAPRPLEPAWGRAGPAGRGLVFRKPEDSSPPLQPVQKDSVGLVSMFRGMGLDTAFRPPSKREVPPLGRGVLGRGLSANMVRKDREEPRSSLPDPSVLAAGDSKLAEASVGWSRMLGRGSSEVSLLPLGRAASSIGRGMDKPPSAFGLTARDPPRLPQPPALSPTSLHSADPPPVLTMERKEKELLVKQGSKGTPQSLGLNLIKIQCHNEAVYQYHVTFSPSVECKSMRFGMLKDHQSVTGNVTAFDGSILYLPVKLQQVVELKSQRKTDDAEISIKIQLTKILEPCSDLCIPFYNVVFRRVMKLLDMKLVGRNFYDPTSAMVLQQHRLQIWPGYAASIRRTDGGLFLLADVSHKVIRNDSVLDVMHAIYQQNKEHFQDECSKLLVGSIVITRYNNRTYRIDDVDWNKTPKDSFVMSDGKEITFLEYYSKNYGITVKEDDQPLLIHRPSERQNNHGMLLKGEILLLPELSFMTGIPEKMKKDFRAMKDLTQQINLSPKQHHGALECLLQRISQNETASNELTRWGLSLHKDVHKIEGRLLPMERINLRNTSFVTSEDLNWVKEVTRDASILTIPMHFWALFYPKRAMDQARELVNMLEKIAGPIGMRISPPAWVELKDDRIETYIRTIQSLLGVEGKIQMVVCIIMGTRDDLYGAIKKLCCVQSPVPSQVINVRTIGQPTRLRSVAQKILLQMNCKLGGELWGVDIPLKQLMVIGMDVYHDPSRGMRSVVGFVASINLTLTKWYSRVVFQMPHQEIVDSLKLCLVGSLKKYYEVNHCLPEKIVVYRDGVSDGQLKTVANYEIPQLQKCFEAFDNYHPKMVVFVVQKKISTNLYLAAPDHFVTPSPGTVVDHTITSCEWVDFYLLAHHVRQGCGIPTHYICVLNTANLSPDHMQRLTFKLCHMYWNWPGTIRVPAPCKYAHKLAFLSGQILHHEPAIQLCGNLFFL
UniProt Q9JMB7: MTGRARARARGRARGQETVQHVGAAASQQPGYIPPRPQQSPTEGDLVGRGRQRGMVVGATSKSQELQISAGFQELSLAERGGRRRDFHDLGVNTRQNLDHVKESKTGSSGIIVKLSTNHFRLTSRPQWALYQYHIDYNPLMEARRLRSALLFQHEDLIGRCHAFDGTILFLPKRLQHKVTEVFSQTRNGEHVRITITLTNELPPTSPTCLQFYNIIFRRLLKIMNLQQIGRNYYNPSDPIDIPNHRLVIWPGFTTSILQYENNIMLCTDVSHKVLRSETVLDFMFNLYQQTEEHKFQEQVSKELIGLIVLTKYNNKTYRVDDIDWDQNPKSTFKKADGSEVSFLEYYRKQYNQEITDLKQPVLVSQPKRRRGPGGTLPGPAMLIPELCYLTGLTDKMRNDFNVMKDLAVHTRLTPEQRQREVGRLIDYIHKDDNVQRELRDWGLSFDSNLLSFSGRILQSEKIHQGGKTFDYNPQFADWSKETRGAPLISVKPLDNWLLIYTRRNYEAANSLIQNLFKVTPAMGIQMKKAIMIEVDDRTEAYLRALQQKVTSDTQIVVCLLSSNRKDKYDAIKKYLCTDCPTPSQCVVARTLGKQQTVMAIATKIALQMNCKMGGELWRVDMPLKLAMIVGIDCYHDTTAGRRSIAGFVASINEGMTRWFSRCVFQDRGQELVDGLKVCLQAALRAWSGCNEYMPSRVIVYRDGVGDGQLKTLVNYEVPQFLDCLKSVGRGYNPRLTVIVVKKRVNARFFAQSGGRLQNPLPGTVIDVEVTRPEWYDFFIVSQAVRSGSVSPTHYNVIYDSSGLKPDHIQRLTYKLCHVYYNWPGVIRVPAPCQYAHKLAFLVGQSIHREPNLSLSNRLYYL

What was measured:
[1] = target: MILI (PIWIL2), FLAG-tagged (mouse) (UniProt Q8CDG1); assay: co-IP; HEK293T cells co-transfected with GFP-TDRD5 and FLAG-MILI or FLAG-MIWI; 48 h after transfection immunoprecipitation with anti-FLAG M2 affinity gel; western blot with anti-GFP and anti-FLAG
[2] = target: MIWI (PIWIL1), FLAG-tagged (mouse) (UniProt Q9JMB7); assay: as above

B1: Tudor domain-containing 5 (TDRD5) protein, GFP-tagged, full length (protein, UniProt Q5VCS6-1 1-1040)
chain: MSEQERIQDCLRKEIRSLLISTKDGLTPQQLEKEYLLMVGNHLPLRILGYRSTMELVLDMPDVVSVCPGGDGTVILKAIPDESTKGIASLVAKQRRSHKVRNSMPKGRPSICSGRVPYRGRVPPILPAVVKSELKDLLALSPVLLSDFEKAFARRFGRSFQYMQYGFLSMFEVLNAASDVISVEQTRAGSLLTLKKSVSEDKQRGWPAGKVFTQPFRMKQQGSYSTGFPVMKAHFSQPISNMEPPKQVLSMAKTPTFNSVEASRLNHTEKLNQLESTFKSVIAQIGPGGTVDPELKRKIQFVVSKFPQGLFISKLLGEFELTFKEQLSPKQLGFLNVTELVGALSDILRVEFSEERQDLLVFDADLKPLPSGGPLSSVRNSCLVQPDKKTEANPWTSSLSRNSLSTVAVKKTTWDCPLKNQKEPEQKIYKKPNLVVKPLQLQVETNKPQLSLSVANHDIPPDAVRAKKLCRLPPLDTSTLVGVFVEYIISPSQFYIRIYSRDSSELLEDMMIEMRRCYSNQLVSDRYIMPEYFIQPGHLCCVKISEDKWWYRVIIHRILGKKEVEVFYPDFGNIGTVQKSSLRFLKCCYTKLPAQAIPCSLAWVRPAEEHWTARAILHFQKLCGLKPLVGVVDEYIDGILNIFLCDTSSNEDVYFHHVLRTEGHAIVCRENAPSKGFRDFNPPALYTNASSAGDMVLTDLGHPAQQHYLNEDQEILQQAQQDINDGKCISYLKSAPKELLKDSKLSSLKTHKSCEEDPRWSILQPKDLKEENEDEVPTGMPCLESVTIGDDVWDENWLPLQAKMGKAGSPASQLFTSNLVGKKQYQTGGEMAQKDWCFSTSKDIWDDSWQPLGLANDVKGGIHTPEGPIAQEKNTSTTRIQQQPDLQYPLDSSTLPKLEEFYISLIKSQQSAERSQSEPASIQTHAGRAASKALSSTPAVGDSPENHSGSVESSPGSLKKEDVSNSRAEATAKDKSQGAIDQLSFILSPQHQISQKLYIPRSTATAVLGAAARLATSRSLLHWYPSVKGGKLEAERDGVK
[1]
  binding: binds
[2]
  binding: binds
